# Library screen at single concentrations

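Growth of Mycobacterium tuberculosis over 4 days (cholesterol / DPPC medium with tyloxapol); the read-out is not stated. Concentration: 500 µM. Higher reads as more growth inhibition (inferred: compounds with an IC50 in retests scored well above the rest). Size under these conditions: about 18,000 compounds, about 900 of them at 50% or above in at least one test.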

Results are given as percent effect. The record does not define 0% and 100%; most values in the screen are far below 50% and negative numbers occur (in some assays of this library far below -100). Compounds were drawn at random from those tested, without regard to their results.

compound	percent effect
CCNC(=O)Nc1cc(OC)cc(OC)c1	37.01%
CCc1cc(CNC(=O)c2ccc(F)c(F)c2)[nH]n1	71.76%
COc1cc(NC(=O)Cn2ccnc2)c(OC)cc1Cl	6.24%
O=C(CNC(=O)c1ccccc1F)Nc1ccsc1	-4.484%
Cc1ccc(C(=O)NCCN)cc1F	8.249%
COCC(NC(=O)c1c(C)cc(C)cc1C)C(N)=O (centres unmarked)	-4.604%
CC1CN(C(=O)[C@H](O)c2ccccc2)CCS1 (some centres unmarked)	-2.147%
CC(O)CN(C)c1ncc(Br)cn1 (centres unmarked)	21.52%
Cn1cc(Cn2nc(-c3ccco3)oc2=O)cn1	52.83%
CCC1(CO)CCCN(c2ccncc2F)C1 (centres unmarked)	31.28%
CN1CCN(c2cccnc2)CC1	-0.2761%
O=C1C=CC(=O)N1Cc1ccc(Cl)cc1	113.7%
Cc1nnc(NCc2ccc3nonc3c2)o1	9.088%
CN(C)c1cc(Cn2cnc3sccc3c2=O)ccn1	36.95%
CCCn1cc(NC(=O)C(CC)CC)ccc1=O	2.757%
Cc1nnc(SCCN)s1	32.06%
CN1CCCN(C(=O)COc2ccccc2Br)CC1	8.068%
Nc1cnc(CC2CC(=O)N(c3ccccc3)C2)cn1 (centres unmarked)	10.01%
O=C(CNC(=O)c1ccccc1)NCc1ccncc1	-7.197%
CC(C)(CN)C1(O)CCOC1 (centres unmarked)	-0.08801%
N#Cc1ccc(OC2CCC(N)CC2)nc1 (centres unmarked)	-5.305%
O=C(NC1CC1)c1snnc1-c1ccccc1	5.501%
CC(=O)Nc1nc(C(=O)NC2(C)CCS(=O)(=O)C2)cs1 (centres unmarked)	-34.32%
Cc1cccc(C(=O)NCCN(C)C)c1	-0.8613%
CCOc1ccc(C(=O)N(C)C2CCN(C)C2=O)cc1 (centres unmarked)	-15.83%
CN1N=C(c2ccc3c(c2)OCCO3)CCC1=O	5.249%
CCC(NC(=O)CCn1cccn1)c1ccccc1O (centres unmarked)	17.26%
N#Cc1ccc(C(=O)NCCCc2csc(N)n2)cn1	-2.132%
O=S(=O)(NC1CC1)C1CCN(CCc2ccccn2)C1 (centres unmarked)	-0.05799%
N#Cc1cnc(NCC2(O)CCC2)cn1	7.269%
CNCC(=O)N1CCC(Oc2ccccc2C)CC1	21.93%
NCCCN1CCN(c2ccccc2)CC1	-9.924%
CCC(=O)c1cc(N)on1	-12.81%
OCC(NC1CCN(c2nccs2)CC1)c1ccco1 (centres unmarked)	22.18%
CCN1CCC(CC(=O)N(C)Cc2noc(C)n2)CC1	-13.45%
N[C@H]1CN(C(=O)c2c(F)cccc2F)C[C@@H]1C1CC1	17.37%
N[C@@H]1CC(=O)N(C2CC2)[C@H]1c1cccnc1	0.9078%
CC(CCc1ccc(O)cc1)NC1(CO)CC1 (centres unmarked)	32.79%
Cc1ncc(S(C)(=O)=O)c(NC2CCOCC2)n1	-1.438%
Cn1cc(C#N)cc1C(=O)NCC1CCCNC1 (centres unmarked)	4.736%
CC1CCC(NCCO)CC1 (centres unmarked)	-4.504%
CCNC(=O)CN1CCCC(c2nccn2CC)C1 (centres unmarked)	-7.684%
Cc1nccn1-c1ccc(C(C)N)cc1F (centres unmarked)	6.179%
CNC(=O)c1ccc(NC(=O)NCc2cccs2)cc1	38.99%
COCCN1CCN(CCS(=O)(=O)C(F)(F)F)CC1	108.3%
CNC(=O)NC1CN(C(=O)OC(C)(C)C)C1	-5.299%
N#Cc1ccc(-n2nccc2N)cc1	-13.2%
CO[C@@H](C(=O)NCCC1=CCOCC1)c1ccccc1	-9.763%
CCCC(=O)NCCN=c1ncnc2n(C)[nH]c(Br)c1-2	4.279%
COCC(C)NC(=O)CCNC(=O)c1cccc(C)c1 (centres unmarked)	-7.85%
CC(C)c1ncc(C(=O)NC2C=CS(=O)(=O)C2)cn1 (centres unmarked)	10.66%
CNC(=O)[C@@H]1CC(=O)N(C)[C@H]1c1cccnc1	27.14%
CN(CCO)c1ccncc1	-15.08%
CC(C)CC(O)CNC(=O)c1ccccc1O (centres unmarked)	-10.89%
CCNc1nc2c([nH]1)c(=O)n(C)c(=O)n2C	4.128%
O=C(CC1CSCCN1)NCCc1ccc(F)cc1F (centres unmarked)	3.545%
Cn1ncc(Cl)c1C(=O)N1CCc2ccccc2C1	8.449%
CC(=O)N1CCN(Cc2cc(C#N)cs2)C(C)(C)C1	2.281%
NCCC1CNCCO1 (centres unmarked)	3.296%
Cn1cncc1CN1CC[C@@]2(O)CCCC[C@H]2C1	-9.878%
COC(=O)CNC(=O)C(C)N(C)CC(C)C (centres unmarked)	-16.29%
CC(C)c1cccc(NC(=O)CN2CCN(C)CC2)c1	27.04%

For reference, 6 entries once more:

compound	percent effect
CCC(NC(=O)CCn1cccn1)c1ccccc1O (centres unmarked)	17.26%
CC(CCc1ccc(O)cc1)NC1(CO)CC1 (centres unmarked)	32.79%
CCC(=O)c1cc(N)on1	-12.81%
CN(CCO)c1ccncc1	-15.08%
N[C@@H]1CC(=O)N(C2CC2)[C@H]1c1cccnc1	0.9078%
CO[C@@H](C(=O)NCCC1=CCOCC1)c1ccccc1	-9.763%

Measurements from “University of Dundee, Small-Polar-MMV Screening Library” (2021), ChEMBL document CHEMBL3988442.